The reference is the same well before dosing, and untreated signal decays as well.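 Labels refer to human fibroblasts, largely primary: uterine (C12385, HUF), lung (H6013), bone (Hs27A), adrenal (HADF), skin (WS1), plus mammary HMF and breast cancer-associated Hs343T. Cancer lines are basal-like or mesenchymal-like triple-negative breast cancer. The paper counts as hits responses shifting over 3x the replicate standard deviation. The tissue of the other fibroblasts is not given here.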
System: MDAMB468
Assay: relative JC-1 red fluorescence (viability) vs pre-drug, coculture with fibroblast (fraction); higher = more viable cancer cells
Procedure: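 JC-1 labelled TNBC cells cocultured 1:1 (1,500 cells each) with CellTrace Violet stained primary or stromal fibroblasts in 384-well plates in FluoroBrite medium, treated with one of 42 anticancer drugs at 0.1, 1, 10 or 100 uM. JC-1 red fluorescence (mitochondrial integrity in cancer cells only) was read by plate reader every 8 h for 72 h. Values are normalised to each well's pre-drug value. The stock of one drug was tenfold lower, so its dose labels may be too high.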

C[C@]12CC[C@@H]3c4ccc(O)cc4C[C@@H](CCCCCCCCC[S+]([O-])CCCC(F)(F)C(F)(F)F)[C@H]3[C@@H]1CC[C@@H]2O (stereo partly specified) [Fulvestrant]
relative JC-1 red fluorescence
Details	8 h	16 h	24 h	32 h	40 h	48 h	56 h	64 h	72 h
0.1 µM, coculture fibroblast: C12385	0.88141	0.834	0.788	0.72	0.675	0.656	0.6112	0.576	0.557
0.1 µM, coculture fibroblast: H6013	0.882	0.829	0.806	0.8	0.765	0.765	0.738	0.716	0.671
0.1 µM, coculture fibroblast: H6019	0.8347	0.776	0.749	0.699	0.662	0.656	0.602	0.573	0.546
0.1 µM, coculture fibroblast: H6076	0.951	0.927	0.887	0.904	0.84	0.842	0.808	0.789	0.864
0.1 µM, coculture fibroblast: H6231	0.846	0.958	0.868	0.848	0.798	0.768	0.713	0.673	0.655
0.1 µM, coculture fibroblast: HADF	0.9041	0.8704	0.825	0.806	0.75	0.7398	0.7014	0.6875	0.647
0.1 µM, coculture fibroblast: HCFa	0.8663	0.783	0.7627	0.754	0.69	0.681	0.633	0.595	0.537
0.1 µM, coculture fibroblast: HCPF	0.873	0.842	0.841	0.819	0.75	0.713	0.654	0.641	0.623
0.1 µM, coculture fibroblast: HHSteC	0.9142	0.8579	0.82	0.792	0.739	0.743	0.68	0.652	0.602
0.1 µM, coculture fibroblast: HMF	0.8509	0.918	0.851	0.862	0.792	0.786	0.743	0.728	0.7259
0.1 µM, coculture fibroblast: HPFa	0.92889	0.9099	0.83	0.7795	0.725	0.71	0.6335	0.601	0.5238
0.1 µM, coculture fibroblast: HUF	0.8927	0.819	0.741	0.67	0.616	0.588	0.539	0.51	0.487
0.1 µM, coculture fibroblast: Hs5	0.802	0.914	0.939	0.921	0.846	0.811	0.769	0.7293	0.749
0.1 µM, coculture fibroblast: Hs27A	0.855	0.784	0.769	0.772	0.714	0.703	0.672	0.652	0.615
0.1 µM, coculture fibroblast: Hs343T	0.905	0.955	0.883	0.8802	0.8	0.788	0.745	0.743	0.739
0.1 µM, coculture fibroblast: WS1	0.894	0.8303	0.77	0.69	0.641	0.603	0.568	0.535	0.524
1 µM, coculture fibroblast: C12385	0.8735	0.8461	0.8438	0.799	0.757	0.763	0.734	0.728	0.718
1 µM, coculture fibroblast: H6013	0.8572	0.8526	0.818	0.818	0.794	0.8	0.769	0.762	0.712
1 µM, coculture fibroblast: H6019	0.8065	0.8055	0.78524	0.7425	0.7045	0.696	0.656	0.625	0.596
1 µM, coculture fibroblast: H6076	0.89	0.8636	0.867	0.894	0.82	0.829	0.813	0.813	0.875
1 µM, coculture fibroblast: H6231	0.827	0.8602	0.821	0.823	0.762	0.741	0.694	0.677	0.68
1 µM, coculture fibroblast: HADF	0.87	0.862	0.803	0.798	0.758	0.755	0.718	0.712	0.677
1 µM, coculture fibroblast: HCFa	0.849	0.84	0.778	0.753	0.6974	0.6992	0.6471	0.6087	0.555
1 µM, coculture fibroblast: HCPF	0.8271	0.889	0.828	0.827	0.754	0.727	0.683	0.673	0.669
1 µM, coculture fibroblast: HHSteC	0.8719	0.8544	0.81986	0.7911	0.755	0.7532	0.6928	0.6642	0.6294
1 µM, coculture fibroblast: HMF	0.8327	0.903	0.855	0.825	0.771	0.761	0.729	0.713	0.706
1 µM, coculture fibroblast: HPFa	0.9416	0.884	0.848	0.811	0.7951	0.792	0.712	0.683	0.598
1 µM, coculture fibroblast: HUF	0.872	0.812	0.777	0.71	0.669	0.658	0.603	0.587	0.569
1 µM, coculture fibroblast: Hs5	0.9384	0.9011	0.887	0.875	0.807	0.789	0.766	0.736	0.76
1 µM, coculture fibroblast: Hs27A	0.845	0.826	0.751	0.747	0.689	0.676	0.63	0.602	0.564
1 µM, coculture fibroblast: Hs343T	0.867	0.871	0.82	0.797	0.723	0.71	0.681	0.664	0.663
1 µM, coculture fibroblast: WS1	0.8534	0.825	0.793	0.741	0.707	0.685	0.661	0.6443	0.637
10 µM, coculture fibroblast: C12385	0.91314	0.91903	0.91	0.817	0.767	0.744	0.701	0.669	0.653
10 µM, coculture fibroblast: H6013	0.9336	0.945	0.891	0.893	0.846	0.858	0.827	0.809	0.809
10 µM, coculture fibroblast: H6019	0.9048	0.8746	0.828	0.757	0.724	0.704	0.668	0.633	0.618
10 µM, coculture fibroblast: H6076	0.967	0.774	0.943	0.9352	0.87	0.857	0.828	0.837	0.951
10 µM, coculture fibroblast: H6231	0.834	0.9666	0.92713	0.893	0.843	0.841	0.819	0.854	0.855
10 µM, coculture fibroblast: HADF	0.94	0.945	0.882	0.904	0.855	0.843	0.802	0.79	0.782
10 µM, coculture fibroblast: HCFa	0.97	0.936	0.913	0.928	0.857	0.877	0.847	0.84	0.839
10 µM, coculture fibroblast: HCPF	0.895	0.9315	0.907	0.9271	0.862	0.825	0.7806	0.7688	0.7658
10 µM, coculture fibroblast: HHSteC	0.966	0.98	0.9013	0.898	0.846	0.872	0.824	0.813	0.799
10 µM, coculture fibroblast: HMF	0.872	0.896	0.93	0.921	0.866	0.851	0.806	0.8	0.778
10 µM, coculture fibroblast: HPFa	0.784	0.854	0.968	0.926	0.871	0.8798	0.808	0.779	0.714
10 µM, coculture fibroblast: HUF	0.968	0.927	0.845	0.783	0.737	0.714	0.675	0.649	0.626
10 µM, coculture fibroblast: Hs5	0.868	0.883	0.921	0.937	0.888	0.848	0.794	0.761	0.771
10 µM, coculture fibroblast: Hs27A	0.909	0.909	0.862	0.8815	0.8125	0.79786	0.78	0.7575	0.7816
10 µM, coculture fibroblast: Hs343T	0.921	0.904	0.923	0.921	0.869	0.857	0.801	0.785	0.79
10 µM, coculture fibroblast: WS1	0.9155	0.899	0.826	0.775	0.723	0.684	0.65	0.613	0.597
100 µM, coculture fibroblast: C12385	0.854	0.917	0.82	0.875	0.841	0.84	0.843	0.855	0.837
100 µM, coculture fibroblast: H6013	0.766	0.759	0.87962	0.809	0.819	0.884	0.756	0.858	0.809
100 µM, coculture fibroblast: H6019	0.851	0.898	0.826	0.773	0.843	0.808	0.769	0.7768	0.74
100 µM, coculture fibroblast: H6076	0.876	0.773	0.7501	0.83	0.801	0.797	0.79	0.772	0.902
100 µM, coculture fibroblast: H6231	0.944	0.839	0.8899	0.798	0.9143	0.815	0.731	0.814	0.809
100 µM, coculture fibroblast: HADF	0.956	0.946	0.894	0.938	0.879	0.8812	0.867	0.881	0.876
100 µM, coculture fibroblast: HCFa	0.809	0.801	0.9064	0.814	0.774	0.758	0.8	0.806	0.872
100 µM, coculture fibroblast: HCPF	0.938	0.861	0.871	0.895	0.855	0.849	0.825	0.8	0.735
100 µM, coculture fibroblast: HHSteC	0.815	0.806	0.866	0.927	0.732	0.909	0.856	0.815	0.837
100 µM, coculture fibroblast: HMF	0.872	0.797	0.915	0.843	0.861	0.797	0.821	0.763	0.722
100 µM, coculture fibroblast: HPFa	0.804	0.761	0.796	0.771	0.885	0.773	0.881	0.808	0.752
100 µM, coculture fibroblast: HUF	0.979	0.919	0.893	0.86	0.83	0.808	0.775	0.771	0.762
100 µM, coculture fibroblast: Hs5	0.721	0.977	0.969	0.86	0.891	0.879	0.856	0.828	0.858
100 µM, coculture fibroblast: Hs27A	0.947	0.89	0.918	0.864	0.8562	0.922	0.914	0.904	0.74
100 µM, coculture fibroblast: Hs343T	0.934	0.85	0.767	0.805	0.799	0.804	0.769	0.741	0.789
100 µM, coculture fibroblast: WS1	0.876	0.797	0.904	0.886	0.842	0.813	0.812	0.797	0.794
